# These are yes or no findings as the source states them, for the method shown. In cells and extracts the contact can be indirect. Some entries that bind do so weakly or less than the wild type.
# Chains of the proteins cited; added tags and fusions are not shown. Lines headed by an entry give the natural chain unless they say otherwise; changes in a name come on top. Residues count along the entry.
# UniProt Q04206: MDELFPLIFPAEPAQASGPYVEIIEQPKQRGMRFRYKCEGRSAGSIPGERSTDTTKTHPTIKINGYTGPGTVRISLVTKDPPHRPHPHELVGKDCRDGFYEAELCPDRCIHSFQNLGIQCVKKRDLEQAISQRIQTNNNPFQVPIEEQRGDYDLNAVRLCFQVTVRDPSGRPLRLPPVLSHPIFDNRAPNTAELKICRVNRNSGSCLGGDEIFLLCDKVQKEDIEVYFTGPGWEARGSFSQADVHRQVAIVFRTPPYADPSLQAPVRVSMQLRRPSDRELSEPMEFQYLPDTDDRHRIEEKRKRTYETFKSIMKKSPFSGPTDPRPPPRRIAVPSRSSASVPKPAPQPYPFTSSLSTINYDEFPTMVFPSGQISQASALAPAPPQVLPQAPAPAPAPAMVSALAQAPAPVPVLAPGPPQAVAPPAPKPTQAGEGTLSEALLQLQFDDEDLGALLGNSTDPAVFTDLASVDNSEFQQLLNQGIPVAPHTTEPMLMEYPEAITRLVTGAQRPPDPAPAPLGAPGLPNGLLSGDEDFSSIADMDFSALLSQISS
# GST-p65-C-terminus: residues 291-551 of Q04206
# Tests used:
# GST-p65-C-terminus = GST-p65-C-terminus (UniProt Q04206); experiment: pull-down; GST-p65-C and mutated GST-p65-C recombinant proteins on Glutathione-Sepharose beads, incubated with PANC-1 whole cell lysate, 4 °C 8 h; western blot of HDAC5 (Figure 4E); only the target purified
# Flag-p65 (S311A) = Flag-p65 (S311A) (UniProt Q04206); experiment: co-IP; PANC-1 cells transfected with p65 plasmids (WT, S311A) for 48 h; western blot (Figure 4F)
# WT Flag-p65 = WT Flag-p65 (UniProt Q04206); experiment: as above
# Flag-HDAC5 = Flag-HDAC5 (UniProt Q9UQL6); experiment: co-IP; PANC-1 cells transfected with HDAC5 plasmid, harvested 48 h later; lysis buffer 20 mM Tris pH 7.5, 150 mM NaCl, 1% Triton X-100; protein A/G agarose, 4 °C overnight; western blot (Figure 3B); also with DMSO or TNF-α for 24 h (Figure 4A)
# [1] = molecular target: HDAC5 (human (endogenous in PANC-1)) (UniProt Q9UQL6); experiment: co-IP; endogenous proteins in PANC-1 lysate, reciprocal co-IP (Figure 3C); also WCL with or without λ-phosphatase (Figure 4B) and cells treated with staurosporine 1 µM or DMSO for 24 h (Figure 4I)
binding (GST-p65-C-terminus),binding (Flag-p65 (S311A)),binding (WT Flag-p65),binding (Flag-HDAC5),binding [1],Substance
binds,binds,binds,,,HDAC5 (from UniProt Q9UQL6 1-1122) (enzyme)
,,,binds,binds,NF-κB p65 (from UniProt Q04206 1-551)

# — publication PMC8899586
